Measurements published in publication PMC8740778, “Translational Pharmacokinetic–Pharmacodynamic Modeling of NaV1.7 Inhibitor MK-2075 to Inform Human Efficacious Dose” (Frontiers in Pharmacology, 2021).

System: BALB/c male mice
Assay: Mouse tail flick latency
Type: in vivo
Conditions: sigmoidal Emax model of tail flick latency

| SMILES | Hill coefficient (h) |
| --- | --- |
| COc1cccc(C2(O)CCCCC2CN(C)C)c1 (centres unmarked) [Tramadol] | 2.76 ± 0.58 |
| CN1CC[C@]23c4c5ccc(O)c4O[C@H]2[C@@H](O)C=C[C@H]3[C@H]1C5 [Morphine] | 1.32 ± 0.33 |
